Data as given in PubChem BioAssay AID485353 (National Center for Advancing Translational Sciences (NCATS), 2010).
The whole screen tested about 330,000 compounds, of which about 610 (0.18%) were called active. Inconclusive means that the source gave no clear call. Such entries were picked first, then a sample of the others. Calls come from the whole dose curve. Where the call is inconclusive, the potency comes from a doubtful curve fit.

assay: qHTS of Yeast-based Assay for SARS-CoV PLP; note: nearly all actives have a fitted effect of over 55% in size; details: S. cerevisiae expressing SARS-CoV PLpro; Potency: growth rescue; series mostly up to 32.9 µM
Potency is the fitted concentration of half-maximal effect.

Structure (SMILES)	Potency
Clc1ccc(N=C2SCC3CCCCN23)cc1 (stereo unspecified)	inactive
c1ccc2c(N3CCCCC3)nc(N3CCCC3)nc2c1	inconclusive: 11.2 µM [activator, partial curve]
Cc1ccc(CNC(=O)C2CC(c3ccc(C(F)(F)F)cc3)=NO2)o1 (stereo unspecified)	inactive
O=C(O)Cn1cc(/C=C2\C(=O)NC(=O)N(c3ccc(Cl)cc3)C2=O)c2ccccc21	inactive
O=C(NC1CCCC1)c1cnn2c(C(F)(F)F)cc(-c3ccco3)nc12	inactive
CCOc1cc(CNCCc2ccccc2)ccc1OCC(=O)NC(C)(C)C	active: 17.8 µM
Cc1cc(C)n(-c2ccc(NC(=O)C3CCN(Cc4ccccn4)CC3)cc2)n1	inactive
CC(=O)N1CCN(CC(C)(C)NS(=O)(=O)c2ccccc2)CC1	inactive
O=C(CSc1nc2cc(Cl)ccc2s1)Nc1cccc(S(=O)(=O)N2CCOCC2)c1	inactive
Cn1c(=O)c2c(nc(N3CCCCC3)n2CCSc2nc3ccccc3s2)n(C)c1=O	inactive
Fc1ccc(-c2csc3ncnc(N4CCN(Cc5ccccc5)CC4)c23)cc1	inconclusive: 20 µM [activator, single point]
COc1cc(OC)cc(N(C(=O)c2ccco2)C(C(=O)NC2CCCC2)c2ccc(N(C)C)cc2)c1 (stereo unspecified)	inactive
Cc1cccc(NC(=O)c2cc(=O)[nH]c3ccccc23)c1	inconclusive: 4.47 µM [activator, single point]
Cn1c(=O)c2c(SCC(=O)N3CCCc4ccccc43)nc(CC(C)(C)C)nc2n(C)c1=O	inactive
O=C1C2CC=CCC2C(=O)N1c1ccc(NCCc2cccc(F)c2)c([N+](=O)[O-])c1 (stereo unspecified)	inactive
Cc1ccc(C2=NN3C(C(=O)c4ccccc4)Oc4ccccc4C3C2)cc1 (stereo unspecified)	inconclusive: 20 µM [activator, single point]
CCOC(=O)c1ccccc1NC(=O)CSc1ccc(-c2ccccn2)nn1	inconclusive: 6.31 µM [activator, partial curve]
O=C(CSc1nnc2ccc(-c3cccnc3)nn12)Nc1ccc(F)cc1	inactive
CCOC(=O)c1nn(-c2ccc(Cl)cc2)c2nc(Nc3ccccc3)cc(=O)n12	inconclusive: 4.47 µM [activator, single point]
CC(=O)Nc1ccc(S(=O)(=O)NCCC(=O)NCC2COc3ccccc3O2)cc1 (stereo unspecified)	inconclusive: 20 µM [activator, single point]
CCN(CC)Cc1nc2c(c(=O)[nH]1)C(CC)(CC)Cc1ccccc1-2	inactive
O=C(CCC(=O)N1CCSc2ccccc21)NCc1cccc(Cl)c1	inconclusive: 0.316 µM [activator, full curve, poor fit]
O=C(c1ccncc1)N(c1ccc2oc3c(c2c1)CCCC3)S(=O)(=O)c1cccc([N+](=O)[O-])c1	inconclusive: 2.82 µM [activator, full curve, poor fit]
COc1ccc(/C=C2/C(=O)OCc3cc(OC)c(OC)cc32)c(OC)c1	inconclusive: 6.31 µM [activator, partial curve]
CC(C(=O)Nc1ccccc1Br)c1ccc([N+](=O)[O-])cc1 (stereo unspecified)	inconclusive: 20 µM [activator, single point]
Fc1cccc(-n2cc(-c3ccccc3)c3c(=S)nc[nH]c32)c1	inconclusive: 12.6 µM [activator, partial curve]

In another format: entries from further up
CCOc1cc(CNCCc2ccccc2)ccc1OCC(=O)NC(C)(C)C
  Potency: active: 17.8 µM
Cc1cc(C)n(-c2ccc(NC(=O)C3CCN(Cc4ccccn4)CC3)cc2)n1
  Potency: inactive

Reprinted from the results shown, 3 compounds:
Structure (SMILES)	Potency
Cn1c(=O)c2c(nc(N3CCCCC3)n2CCSc2nc3ccccc3s2)n(C)c1=O	inactive
Fc1ccc(-c2csc3ncnc(N4CCN(Cc5ccccc5)CC4)c23)cc1	inconclusive: 20 µM [activator, single point]
COc1cc(OC)cc(N(C(=O)c2ccco2)C(C(=O)NC2CCCC2)c2ccc(N(C)C)cc2)c1 (stereo unspecified)	inactive

Further records

Structure (SMILES)	Potency
O=C(NNC(=S)Nc1ccc(F)cc1F)c1ccco1	inconclusive: 3.55 µM [activator, partial curve]
C=CCc1ccccc1OCCn1nnc2ccccc21	inactive
O=C(N/N=C/C=C/c1ccccc1[N+](=O)[O-])c1cc(-c2ccccc2)n[nH]1	inconclusive: 22.4 µM [activator, partial curve, poor fit]
Cc1ccc(N2C(=O)CCC(C(=O)O)C2c2cccs2)cc1 (stereo unspecified)	inconclusive: 2 µM [activator, full curve, poor fit]
Cc1c(-n2cc(C(=O)c3cc(F)ccc3O)cc(C#N)c2=O)c(=O)n(-c2ccccc2)n1C	inconclusive: 20 µM [activator, single point]
CNC(=O)c1cccn(Cc2ccc(C(F)(F)F)cc2)c1=O	inactive
C=CCn1c(SCC(=O)NC(=O)NC2CCCC2)nnc1C1CCCCC1	inconclusive: 11.2 µM [activator, single point]
CCn1cc(CNC(=S)Nc2cccc(Cl)c2C)cn1	inactive
CC(=O)NCCc1nc2cc(NC(=O)c3ccccc3Cl)ccc2n1C	inactive
C=C(C)CSC1=C(C#N)C(c2ccccc2Cl)CC(=O)N1 (stereo unspecified)	inactive
Cc1nn(C)c(C)c1CN(C(=O)C1CCC(=O)N(C2CCCCCC2)C1)C(C)C (stereo unspecified)	inconclusive: 2.82 µM [activator, single point]
Cc1cc(=O)oc2c(C)c(OC(C)C(=O)NCCCN3CCOCC3)ccc12 (stereo unspecified)	inconclusive: 17.8 µM [activator, single point]
N#Cc1ccc(OC(=O)Cc2ccsc2)cc1	inactive
CC(=O)c1c(C)nn(CC(=O)NC2CCCN(Cc3ccc(CC(C)C)cc3)C2)c1C (stereo unspecified)	inconclusive: 22.4 µM [activator, single point]
COc1cccc(N2CCC(N3CCN(C)C(CCO)C3)CC2)c1 (stereo unspecified)	inconclusive: 3.98 µM [activator, single point]
c1ccc2c(CN3CCSCC3)cccc2c1	inactive
COc1ccc(Nc2c3c(c(C#N)c4nc5ccccc5n24)CCC3)cc1	inconclusive: 20 µM [activator, single point]
CC/C(=N\NC(=O)OC)c1ccc(OC(F)F)cc1	inconclusive: 20 µM [activator, single point]
Cc1c(/C=N\NC(=O)c2cccc(F)c2)cnn1C	inconclusive: 3.98 µM [activator, single point]
COc1cc(Cl)ccc1OCc1cc(C(=O)NC2CCc3ccccc32)no1 (stereo unspecified)	inactive
C=CCn1c(C)nc2c(cnn2-c2ccccc2)c1=O	inconclusive: 3.16 µM [activator, single point]
O=c1c2cc(NC(=S)NC3CCCCC3)ccc2nc2n1CCCCC2	inactive
FC(F)(F)c1nnc2c(Sc3ccccn3)nc3ccccc3n12	inactive
CC1CN(C(=S)NC(=O)c2ccccc2)CC(C)O1 (stereo unspecified)	inconclusive: 1.12 µM [activator, full curve, poor fit]
Cc1cc2cccc(C)c2nc1SCC(=O)N(C)c1nc(-c2ccccc2)cs1	inconclusive: 3.55 µM [activator, single point]
CC(=O)Nc1ccc(NC(=O)C(C)OC(=O)c2cccc(S(=O)(=O)N3CCCCC3)c2)cc1 (stereo unspecified)	inconclusive: 0.398 µM [activator, full curve]

Structure (SMILES)	Potency
CNC(=O)Oc1ccc2ncccc2c1	active: 14.1 µM
CCOC(=O)Cn1c(CN2CCN(c3cccc(Cl)c3)CC2)nc2c1c(=O)[nH]c(=O)n2C	inconclusive: 10 µM [activator, partial curve]
CCOC(=O)c1ccc(NC(=O)Nc2c(C)nn(C)c2C)cc1	inactive
CC(C)(C)C1=C(C#N)C(c2cccnc2)C(C#N)=C(N)O1 (stereo unspecified)	active: 17.8 µM
Cc1cccc(C)c1NC(=O)CN(C)C(=O)c1ccccc1SCC(=O)N1CCCC1	active: 14.1 µM
COc1cccc(C=N[C@@H](CO)[C@@H](O)c2ccc([N+](=O)[O-])cc2)c1O	inactive
Cc1nnc(NC(=O)C2CC(=O)N(Cc3ccccc3)C2)s1 (stereo unspecified)	inconclusive: 20 µM [activator, single point]
Cc1cc(-c2nc3ccccc3o2)c2ccccc2n1	inactive
COCC(O)CNc1ccccc1 (stereo unspecified)	inconclusive: 4.47 µM [activator, single point]
CCOC(=O)NC1(NC2CCCCC2)Oc2ccccc2O1	inconclusive: 3.16 µM [activator, partial curve]
Cc1cc(O)ccc1Nc1nc(-c2cccnc2)cs1	inactive
CN(C)C(=O)CSc1nnc2sc3ccccc3n12	inconclusive: 4.47 µM [activator, single point]
O=C(CSc1nnc(SCC(=O)c2ccco2)s1)c1ccco1	inactive
C/C(=N\NC(=O)c1ccc(CSc2nncn2C)cc1)c1ccc2ccccc2c1	inconclusive: 22.4 µM [activator, single point]
COC(=O)CC(NS(=O)(=O)c1cccs1)c1ccc2c(c1)OCO2 (stereo unspecified)	inconclusive: 20 µM [activator, single point]
COc1ccc(OCC(=O)OCC(=O)NCc2ccc(F)cc2)cc1	inconclusive: 1 µM [activator, partial curve, poor fit]
Cc1cc(NC(=O)c2cccc(S(=O)(=O)N3CCCCCC3)c2)no1	inconclusive: 4.47 µM [activator, single point]
CC(C)CC(=O)NC(=S)N(Cc1ccccc1)Cc1ccccc1	inconclusive: 2.82 µM [activator, single point]
Cc1ccc(C(=O)Nc2nc(-c3ccccc3)c(-c3ccccc3)o2)cc1	active: 10 µM
CC(=O)N1[C@H](C)C=C[C@]1(Cc1ccccc1)C(=O)O	inconclusive: 4.47 µM [activator, single point]
Cc1ccc(/C=N/NC(=S)NC2CCCCC2)o1	inconclusive: 4.47 µM [activator, single point]
CSc1ccc(CN(C)C(=O)C23CC4CC(CC(Cl)(C4)C2)C3)cc1	inactive
O=C(COC(=O)c1n[nH]c(=O)c2ccccc12)Nc1ccccc1F	inconclusive: 10 µM [activator, partial curve]
O=C(CNC(=O)c1ccc(Br)cc1)Nc1ccc(Br)cc1C(=O)c1ccccc1	inconclusive: 11.2 µM [activator, single point]
